Reference: publication PMC6001135
These are yes or no findings as the source states them, for the method shown. In cells and extracts the contact can be indirect. Some binding calls cover weakened binding; strength is not graded here.

Amino acid sequences for entries named in this document (tags omitted).
UniProt P63216: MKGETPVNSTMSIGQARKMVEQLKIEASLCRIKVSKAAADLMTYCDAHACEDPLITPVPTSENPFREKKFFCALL
UniProt P62874: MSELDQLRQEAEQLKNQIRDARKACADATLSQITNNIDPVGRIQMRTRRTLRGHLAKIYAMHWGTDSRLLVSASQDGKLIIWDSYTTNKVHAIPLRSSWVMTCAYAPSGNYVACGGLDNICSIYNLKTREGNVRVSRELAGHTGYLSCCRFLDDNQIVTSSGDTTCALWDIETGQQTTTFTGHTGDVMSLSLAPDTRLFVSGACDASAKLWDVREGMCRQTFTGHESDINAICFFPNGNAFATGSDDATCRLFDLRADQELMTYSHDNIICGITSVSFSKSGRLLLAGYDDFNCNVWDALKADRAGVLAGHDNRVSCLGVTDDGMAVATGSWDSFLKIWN

Target: G-protein γ-subunit Gγ3 (mouse (endogenous in rod outer segments)) (UniProt P63216)
Assay: co-IP; anti-Gγ2 (mouse) or anti-Gγ3 (rabbit) antibody on Protein G or Protein A Mag Sepharose beads, incubated with 12.5 μg rod outer segment lysate of Gγ1−/− or WT mice overnight at 4°C; 0.1% n-dodecyl-β-maltoside in PBS with protease inhibitors; Gβ1 detected by Western blotting

“Transducin β-subunit Gβ1 (from UniProt P62874 1-340)” was tested, and the binding was “binds”.
